Assay results reported in PMC8592748.
No constants are given. Whether binding was seen depends on the method and setting. In cells and extracts the contact can be indirect. Some binding calls cover weakened binding; strength is not graded here.

Chains of the proteins cited; added tags and fusions are not shown.
UniProt Q8R4B8: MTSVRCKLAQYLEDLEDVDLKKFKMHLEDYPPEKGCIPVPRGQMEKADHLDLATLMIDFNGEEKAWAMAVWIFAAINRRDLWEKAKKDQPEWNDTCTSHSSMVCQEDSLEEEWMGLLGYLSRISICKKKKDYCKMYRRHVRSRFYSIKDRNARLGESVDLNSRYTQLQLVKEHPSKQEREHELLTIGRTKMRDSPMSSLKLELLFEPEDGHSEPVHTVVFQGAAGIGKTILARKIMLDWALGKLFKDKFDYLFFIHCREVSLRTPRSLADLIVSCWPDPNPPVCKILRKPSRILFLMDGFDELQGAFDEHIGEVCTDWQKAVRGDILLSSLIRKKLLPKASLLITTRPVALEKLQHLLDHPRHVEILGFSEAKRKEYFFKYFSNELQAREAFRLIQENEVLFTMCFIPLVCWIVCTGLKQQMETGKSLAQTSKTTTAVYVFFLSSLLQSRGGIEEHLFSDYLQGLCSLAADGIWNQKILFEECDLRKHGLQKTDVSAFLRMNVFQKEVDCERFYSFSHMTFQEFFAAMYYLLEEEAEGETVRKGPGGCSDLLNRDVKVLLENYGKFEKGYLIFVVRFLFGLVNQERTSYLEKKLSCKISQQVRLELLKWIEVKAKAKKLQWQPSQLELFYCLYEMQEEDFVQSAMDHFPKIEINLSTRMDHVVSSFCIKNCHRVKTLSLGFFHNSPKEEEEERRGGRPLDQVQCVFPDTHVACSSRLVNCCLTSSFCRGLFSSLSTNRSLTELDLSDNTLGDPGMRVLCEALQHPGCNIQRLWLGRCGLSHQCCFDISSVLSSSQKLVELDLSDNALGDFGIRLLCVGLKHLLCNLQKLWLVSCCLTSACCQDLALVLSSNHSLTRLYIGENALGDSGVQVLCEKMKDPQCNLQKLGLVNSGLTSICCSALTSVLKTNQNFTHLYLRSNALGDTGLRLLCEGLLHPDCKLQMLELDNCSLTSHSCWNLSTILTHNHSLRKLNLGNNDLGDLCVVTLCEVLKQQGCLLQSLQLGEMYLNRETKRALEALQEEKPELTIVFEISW

Biological target: nucleotide-binding domain leucine-rich repeat and pyrin domain-containing receptor 3 (NLRP3) (mouse (endogenous in RAW264.7 and primary peritoneal macrophages)) (UniProt Q8R4B8)
Experiment: co-IP; endogenous TXNIP or NLRP3 immunoprecipitated from lysates of RAW264.7 cells or primary peritoneal macrophages (control, Mtb H37Ra 12 h, Mtb + 100 uM baicalin 12 h); Protein A/G agarose/sepharose beads, 4°C; immunoblot for the other protein

B1: Thioredoxin-interacting protein (TXNIP) (protein, UniProt Q8BG60 1-397)
chain: MVMFKKIKSFEVVFNDPEKVYGSGEKVAGRVIVEVCEVTRVKAVRILACGVAKVLWMQGSQQCKQTLDYLRYEDTLLLEEQPTAGENEMVIMRPGNKYEYKFGFELPQGPLGTSFKGKYGCVDYWVKAFLDRPSQPTQEAKKNFEVMDLVDVNTPDLMAPVSAKKEKKVSCMFIPDGRVSVSARIDRKGFCEGDDISIHADFENTCSRIVVPKAAIVARHTYLANGQTKVFTQKLSSVRGNHIISGTCASWRGKSLRVQKIRPSILGCNILKVEYSLLIYVSVPGSKKVILDLPLVIGSRSGLSSRTSSMASRTSSEMSWIDLNIPDTPEAPPCYMDIIPEDHRLESPTTPLLDDVDDSQDSPIFMYAPEFQFMPPPTYTEVDPCVLNNNNNNNNVQ
binding: binds
